In PubChem BioAssay AID2685 (National Center for Advancing Translational Sciences (NCATS), 2010):
Some of the results follow. The main result of the screen is listed elsewhere. These columns were measured beside it and carry no call. Compounds called inactive in the main read-out are mostly missing here. Words in brackets tell the shape of the fitted curve; partial curves, single points and poor fits give uncertain potencies.

Assay: qHTS Assay for Lipid Storage Modulators in Drosophila S3 Cells;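 on cell number change: cells counted by Cell Tracker Red CMTPX staining in the red channel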
Conditions: BODIPY lipid droplet fluorescence, 18-24 h; for cell number change: measured here: cell count max response, cells fed with added oleic acid
Procedure, shortened: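 Drosophila S3 cells loaded with oleic acid (400 uM, as added) and compounds at several concentrations; lipid droplets imaged by 488-nm laser-scanning cytometry, 500–530 nm intensity and object ratio to cell channel. Percent activity normalized to 20 uM Triacsin C.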

[1] = measured here: lipid fluorescence (Fed channel) AC50, cells fed with added oleic acid
[2] = measured here: cell number channel AC50, cells fed with added oleic acid

NC(=O)NC(=O)COC(=O)c1sc2ccccc2c1Cl
cell number change: 7.64% | AC50 [1]: 0.146 µM [falling, full curve, poor fit]

N#CC(c1ccc(Cl)cc1)N1CCOCC1 (stereo not given)
cell number change: 4.23% | AC50 [1]: 2.59 µM [rising, partial curve]

COc1ccc(NC(=O)c2cccc(S(=O)(=O)Nc3ccc(Br)cc3)c2)cn1
cell number change: -9.85% | AC50 [1]: 16.4 µM [falling, single point]

CC(=O)c1cc2c(cc1N/C(=N/S(=O)(=O)c1ccccc1)c1ccc(Cl)cc1)OCO2
cell number change: 1.21% | AC50 [1]: 18.4 µM [rising, single point]

CN1/C(=C/C2CC(=O)N(c3ccc([N+](=O)[O-])cc3)C2=O)C(C)(C)c2ccccc21 (stereo not given)
cell number change: 6.84% | AC50 [1]: 16.4 µM [rising, single point]

Cc1nc(N)c(C#N)c(-c2cccnc2)c1C
AC50 [2]: 6.51 µM [falling, single point]

Cc1ccc(S(=O)(=O)NC(=O)c2ccc(-c3ccc(C)c4ccccc34)o2)cc1
cell number change: 14.1% | AC50 [1]: 11.6 µM [rising, single point]

C=CCn1c(COc2ccc(CC)cc2)nnc1SC/C(O)=C(\C#N)c1nc2ccccc2[nH]1
AC50 [2]: 1.84 µM [rising, partial curve] | AC50 [1]: 0.58 µM [rising, single point]

COc1ccc(/C=C(\NC(=O)c2ccc(OC)cc2)C(=O)Nc2ccccc2C(=O)O)cc1
cell number change: 25.4% | AC50 [1]: 29.1 µM [rising, single point]

O=C(NCCc1c[nH]c2ccccc12)OCCCCOC(=O)NCCc1c[nH]c2ccccc12
cell number change: 3.63% | AC50 [1]: 11.6 µM [falling, partial curve, poor fit]

COc1ccccc1Nc1nc(N)nc(CSc2nnc(C)s2)n1
cell number change: -14.3% | AC50 [1]: 18.4 µM [rising, partial curve]

Cc1cc(C)nc(N(C#N)C(C)C(=O)N(C)C)n1 (stereo not given)
cell number change: 27.5% | AC50 [1]: 0.00461 µM [rising, full curve, poor fit]

N=c1c(C(=O)NC2CCCCC2)cc2c(=O)n3ccccc3nc2n1Cc1cccnc1
cell number change: -1.9%

CCOc1ccccc1NC(=O)COC(=O)C1CC(=O)N(c2c(C)cccc2C)C1 (stereo not given)
cell number change: -6.35% | AC50 [1]: 0.82 µM [falling, full curve, poor fit]

CCOC(=O)c1ccc(S(=O)(=O)N2CCN(CC(=O)NC(=O)NC3CCCCC3)CC2)cc1
cell number change: 1.41% | AC50 [1]: 1.46 µM [falling, partial curve]

Cc1nc(CN2CCN(C(=O)c3ccc(Br)cc3)CC2)cs1
cell number change: 7.84%

O=C(CSc1cccc2cccnc12)N/N=C/c1cccnc1
AC50 [2]: 0.291 µM [rising, partial curve, poor fit]

CC(C)(C)NC(=O)CSc1nnc(C2CC2)n1-c1ccccc1
cell number change: 23.2%

O=C(Nc1ccon1)c1ccc(S(=O)(=O)N2CCOCC2)cc1
cell number change: -19.1% | AC50 [1]: 2.59 µM [falling, full curve, poor fit]

Cc1ccc(C2N(C)c3ccccc3-c3nc4ccccc4n32)o1 (stereo not given)
cell number change: 21.4% | AC50 [1]: 0.58 µM [rising, single point]

CC(C)(C)NC(=O)C1CN(S(=O)(=O)c2ccccc2)CCN1S(=O)(=O)c1ccccc1 (stereo not given)
cell number change: -10.8% | AC50 [2]: 0.731 µM [falling, full curve, poor fit]

CC(=O)Nc1ccc(S(=O)(=O)N2CCC(NC(=O)C(Cc3ccc(C)cc3)NC(C)=O)CC2)cc1 (stereo not given)
cell number change: 8.47% | AC50 [1]: 0.103 µM [rising, full curve, poor fit]

O=C(C1CCCO1)N1CCN(C(=S)Nc2ccc(Cl)c(Cl)c2)CC1 (stereo not given)
cell number change: -22.4% | AC50 [1]: 29.1 µM [rising, single point]

CCn1c(CSc2nnc3ccccn23)nc2cc(C(=O)O)ccc21
cell number change: 14.4%

O=C(CN1CCSCC1)c1c[nH]c2ccccc12
AC50 [2]: 6.51 µM [falling, single point] | AC50 [1]: 0.651 µM [falling, single point]

Cc1cc(C)cc(N(C(=O)CCC(=O)Nc2ccccn2)C(C(=O)NC(C)C)c2ccc(O)cc2)c1 (stereo not given)
cell number change: 32.4% | AC50 [2]: 20.6 µM [rising, single point]

CCN1CCN(S(=O)(=O)c2ccc(Cl)c(C(=O)NC3CCCC3)c2)CC1
cell number change: 22.5%

CCCn1c(=O)c(C(=O)Nc2nnc(CC)s2)c(O)c2ccccc21
cell number change: -1.36% | AC50 [1]: 0.0058 µM [falling, full curve, poor fit]

CC(C)C(c1nnnn1CCc1ccccc1)N1CCN(C(=O)c2ccco2)CC1 (stereo not given)
cell number change: 0.295%

COc1cccc(CNC(=O)C2CCN(S(=O)(=O)c3ccc(C)cc3)CC2)c1
cell number change: 38.5% | AC50 [2]: 8.2 µM [rising, single point]

CCC(=O)Nc1cccc(C2=NN(c3ccccc3)C(c3ccc(OC)cc3)C2)c1 (stereo not given)
cell number change: 64.9% | AC50 [2]: 29.1 µM [rising, single point] | AC50 [1]: 29.1 µM [rising, single point]

CCOc1ccc(NC(=O)CC2C(=O)N(c3ccccc3)C(=O)N2Cc2ccco2)cc1 (stereo not given)
cell number change: 24% | AC50 [2]: 1.16 µM [rising, single point] | AC50 [1]: 1.16 µM [rising, partial curve, poor fit]

CCc1c(C)nc2nc(SCc3ccccc3)[nH]n2c1=O
AC50 [2]: 0.103 µM [rising, full curve, poor fit]

CCN(CC)S(=O)(=O)N1CCC(C(=O)NCCC2=CCCCC2)CC1
cell number change: 28.2% | AC50 [2]: 0.00184 µM [rising, full curve, poor fit]

C=CCN1C(=O)S/C(=C\c2ccc(N3CCOCC3)cc2C)C1=O
cell number change: 7.05% | AC50 [1]: 6.51 µM [rising, single point]

COc1ccc(OC)c(NC(=O)c2nnn(CC(=O)Nc3ccc4c(c3)OCO4)c2N)c1
cell number change: -8.57% | AC50 [1]: 3.66 µM [rising, single point]

CCCCC(=O)NC(c1ccco1)c1c(O)ccc2ccccc12 (stereo not given)
cell number change: 18.3% | AC50 [2]: 4.61 µM [rising, single point]

Cc1ccc(C(=O)CN(CCCC(N)=O)C(=O)c2ccncc2)cc1
cell number change: -32.8% | AC50 [2]: 32.6 µM [falling, single point] | AC50 [1]: 18.4 µM [falling, single point]
